# Assay results as given in PubChem BioAssay AID1508600 (Functional Genomics Laboratory (NCATS/FGL), 2020).
# About 3,700 (7%) of roughly 53,000 sequences were called active.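 How the source made its calls: active means gene knockdowns whose robust z-score for IL-1 alpha signal is at least 2 or at most -2, so actives lie on both sides; inactive means the rest.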 The list shows a part of the results.
# Test: Components of the Cytosolic LPS Sensing Pathway: Gene Identification via Genome-wide siRNA Screen;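 further: robust z of the log signal after scaling to non-targeting control siRNA wells of the plate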
# Conditions: RAW264.7 macrophages, IL-1a HTRF, actives lie on both sides, screened at 100 nM (by protocol), cells primed 5 h with Pam3CSK4 first
# Procedure, shortened: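 Read-out: IL-1a HTRF on supernatant, divided by plate negative-control median ×100, log-transformed and converted to robust z-score. Cells were RAW264.7 given 100 nM siRNA, Pam3CSK4-primed 5 hours, then LipidA-transfected 24 hour.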
row,Sequence,z-score
1,GGAGCAAGAGUCUAAAUGATT against Rubcn,active: -2.23
2,GCUCCAGAGUUCGUCUUUGTT against Zfp64,inactive: -0.0115
3,AGUACCCAUAUCAACGAAGTT against Olfr926,inactive: -0.209
4,GGCUUUUUGAGGUAUUUCATT against Cnpy1,inactive: -0.00398
5,GGCCCUCAUCAUAAAUGCUTT against Dctn6,inactive: -0.525
6,CGUAGCAACUUGUUUCUCUTT against Bend3,inactive: -1.72
7,CCAGGAAUUACUACGUCCGTT against Cyba,inactive: -1.51
8,GGUCAGAGGUCGACCUAUUTT against Oas1h,active: -2.18
9,CCUUCUUUGUUCCAUAAGATT against Hapln2,inactive: -0.858
10,GGGAACAUUUAUCCCUGUGTT against Olfr480,inactive: -0.512
11,CCUUUGAUUGACAGAAAGATT against Etv5,inactive: 1.14
12,GGAGACAGGGUUUUUCCUGTT against Tap1,inactive: -0.165
13,GGACUACGUAUUUUCCCUGTT against Cyc1,inactive: -0.39
14,GGUUUCUUUUCCUCUGGGCTT against Gata1,inactive: -0.204
15,GGAGUCUCCAAUGAAAUGUTT against Kcnma1,inactive: -0.464
16,GGUCUUCGAAGCUACGAUATT against Edem1,inactive: 0.0301
17,GGGCAAUAAGAUGUACGUUTT against Eomes,active: 3.24
18,GGCUUCCAGAAUUCAAAUUTT against Rer1,inactive: 1.37
19,GGCCAAAGAAGAAUCUCCUTT against Aebp2,inactive: -0.124
20,GGCAAUACGUGAAGAAAAATT against Baz1a,inactive: -0.493
21,GGAUAAGAAGACCUGCAUCTT against Gng12,inactive: -1.88
22,GGGAAAAGUUUUGGAAAAUTT against Hps5,inactive: -0.406
23,GGACAUGCAUCUUGUUUUCTT against Olfr1307,inactive: -1.03

row,Sequence,z-score
1,GGUUCCAAUGCUAUUGAAUTT against Tc2n,inactive: 0.391
2,GCCUUAACAAUGUUAAUCATT against Cadm2,inactive: -1.09
3,GGGACGUGAAGAUGAAGAATT against Fbp1,inactive: 0.496
4,GGAUUGAAGAAGAAAAGUCTT against Creb1,inactive: -0.761
5,GGAAGUCAAGGAAGCCUUCTT against Olfr368,inactive: 0.947
6,CCAUUGACUCCAGUGGGAATT against Ntmt1,inactive: 0.298
7,GGAAGAGUGUAUCAUUCUUTT against Dusp9,inactive: 0.129
8,CGUGAGGUUUGGAGGGUCATT against Rps9,inactive: -0.344
9,CCUAAAUGGAUAGGGUUGCTT against 1700001C19Rik,inactive: -0.378
10,GGAAAAGACAAGGAAUAUGTT against Ube2r2,inactive: -0.126
11,GGAGAGUGGCAUUACCUAUTT against Meis3,inactive: 0.983
12,UGCUGACGACAUCCCAUGCTT against Olfr255,inactive: -0.0376
13,GGAAAGAUUUCGAACAAUCTT against Rab1a,inactive: 1.66
14,GGAGAAAGUGCGUCUAUAATT against Gdi2,inactive: 0.109
15,GGAUUUGCAUCUUAAGGAATT against Map3k7cl,inactive: 0.743
16,GCAUGUAGUGGAGAAAUGCTT against Zbtb12,inactive: -0.744
17,GGCAUUUGUGCUCUUCGGATT against Sctr,inactive: -0.847
18,CCAUUAUCAAGGAACAAGCTT against Itgb4,inactive: -0.151
19,GGACAAUUCUAUCAAGUGGTT against Fcgr4,inactive: -0.245
20,GGGUAUGAGGGCCAAAAUATT against Pheta1,inactive: 0.699
21,GGUGACCAAGCAGAUAACATT against Prcc,inactive: -1.19
22,CCUAAAAUACUUUACCGGGTT against Bckdhb,inactive: -0.025
23,GGAGAUUUACACUUUACUATT against Spata4,inactive: 0.901

# Some values from the entries so far:
# Entry of GCCUUAACAAUGUUAAUCATT against Cadm2 under z-score: inactive: -1.09
# Entry of CCUAAAUGGAUAGGGUUGCTT against 1700001C19Rik under z-score: inactive: -0.378
# Entry of GGAAAAGACAAGGAAUAUGTT against Ube2r2 under z-score: inactive: -0.126
# Entry of GGAUUUGCAUCUUAAGGAATT against Map3k7cl under z-score: inactive: 0.743

# (next part)

row,Sequence,z-score
1,GGGAUGCUUUUGGCCCAAATT against Rita1,inactive: 0.901
2,CCAACGUACCAGCAAUAGUTT against Rab8a,inactive: 0.0739
3,GGUAGAAGAAUUGUUUGUGTT against Tcp11l1,inactive: 0.967
4,CGCAAUUUGACAUUUGGAUTT against Plekhh2,inactive: -1.67
5,CGAAUGAGAUUUUCACUCUTT against Tek,inactive: 1.07
6,GGACUGGAUUCAAACAAAATT against Lrrc1,inactive: -0.796
7,CGAGUGAAUUCGAUGGACCTT against Olfr945,inactive: 0.524
8,GGUUUUUCUUCAUCUUAUCTT against Hspb8,inactive: 0.396
9,GGAAUCCUCUGAAUAACCUTT against Vmn1r172,inactive: -1.14
10,GGAUUGUGGGAGAUAGAUATT against Psip1,inactive: 0.901
11,UGCUUUUUUGCCUAGCCAATT against Gpr135,inactive: 0.44
12,GCACCAAGGAACUUGUUUCTT against Trpv2,inactive: -0.112
13,GCCAGGUUAAGCACUACGUTT against 2310022B05Rik,inactive: 0.083
14,GGAUUGUGCAGAGCAUCUGTT against Card14,inactive: -1.45
15,GGAUCCUCGGACUAAAAGUTT against Pnma1,inactive: -0.228
16,GCUAGUUAAUGGUAACAUATT against Sult1d1,inactive: -1.68
17,GGUCACCUAAGUGCUUACGTT against Ceacam2,inactive: -0.46
18,GGAACAGCUCUUUUGUGCUTT against Rin2,inactive: 0.714
19,GGACAAAUGACUGGUACCCTT against Gorasp2,inactive: -0.314
20,CCUGUUCUGUUAUCAACGGTT against Plxdc1,inactive: 0.123
21,GGAAAGCUCACUUUCUUUUTT against Lmln,inactive: 0.185
22,GAUGUACGAUCUGGUGGUGTT against Exosc6,active: 2.73
